The source of these data is PMC7819943, “Rice protein-binding microarrays: a tool to detect cis-acting elements near promoter regions in rice”.

Amino acid sequences for entries named in this document (tags omitted).
UniProt Q0JBA9, entry or part of it: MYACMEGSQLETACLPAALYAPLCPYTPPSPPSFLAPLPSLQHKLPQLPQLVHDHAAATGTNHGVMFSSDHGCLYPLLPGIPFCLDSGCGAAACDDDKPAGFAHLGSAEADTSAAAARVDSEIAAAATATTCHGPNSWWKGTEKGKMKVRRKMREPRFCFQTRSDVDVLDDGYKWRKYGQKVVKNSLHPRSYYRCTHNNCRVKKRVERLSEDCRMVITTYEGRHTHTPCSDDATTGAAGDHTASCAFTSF

This is one part of the list.

The test addresses OsWRKY34 (Oryza sativa, UniProt Q0JBA9 1-250). Kind of test: protein-binding microarray (RPBM); PBS, 2% BSA, 51.3 ng/ul salmon testes DNA, 50 uM zinc acetate, 200 nM TF, 25 C, 1 h; high values mean tight binding. To be noted: protein: recombinant; tags: N-terminal polyhistidine and DsRed monomer fusion (pET32a); label: CyDye5-dUTP incorporated in the synthesized complementary strand; 3' TTTTT single-stranded linker to array surface; dsDNA, one strand shown. In outline: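 Polyhistidine-tagged DsRed fusions of transcription factors, joined at the N-terminus, were expressed in E. coli BL21-CodonPlus and isolated on Ni–NTA. They were incubated at 200 nM for 1 h at 25 °C on a custom Agilent array, double-stranded and BSA-blocked, in PBS with 2% BSA, salmon testes DNA and 50 µM zinc acetate. The binding signal is per-feature fluorescence intensity (arbitrary units) read on an Axon 4000B scanner after washing.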
On to “TGTTTTCTTCTCATTCTTCTTTTTTCCCTTTCTTTTGCTCCGGAGTCACCTAGTGCAG”, for which the binding signal was 8390 fluorescence intensity (a.u.).

For the sequence “TCTCTCCCTATAGCTTCTTGTTGTTGTTGTTGTTGTTCTCCGGAGTCACCTAGTGCAG”, the binding signal was 8230 fluorescence intensity (a.u.).

Regarding “ACCATTTGTTCATTTGCCGCATCACATCACATCAACGTATCGGAGTCACCTAGTGCAG”, the binding signal is 9180 fluorescence intensity (a.u.).

Regarding “TGTGCTTAGGTCAGCTTTGTCGATTTGTAGTCGTCTGTATCGGAGTCACCTAGTGCAG”, the binding signal was 9010 fluorescence intensity (a.u.).

With “TGAGGGGTTTGGTTACAATTTCTTCTCCCAATTTAAAAACCGGAGTCACCTAGTGCAG”, the binding signal was 9950 fluorescence intensity (a.u.).

For the sequence “TTTGATTTCTTGGAAGAAACCACTTATTGTACCAATGTTCCGGAGTCACCTAGTGCAG”, the binding signal was 8240 fluorescence intensity (a.u.).

As to “CGATCATGACACGACCGTCTTCACCTTGTAGTTCCGCGCGCGGAGTCACCTAGTGCAG”, the binding signal was 9180 fluorescence intensity (a.u.).

In the case of “ACTGGTTTTACACATTATGTGGGCTAACTTAATACTCCTTCGGAGTCACCTAGTGCAG”, the binding signal was 8040 fluorescence intensity (a.u.).

“GAATCGGAGGGCGCGCCCATCCCTTCGCTTTTCCGCAACACGGAGTCACCTAGTGCAG”: the binding signal was 8190 fluorescence intensity (a.u.).

On to “TGAGGTTGATATATACTCTGATTTATTTATTCGTACACATCGGAGTCACCTAGTGCAG”, for which the binding signal was 9810 fluorescence intensity (a.u.).

Turning to “TCTCAAACAAACGGTCAGTACCAACATTTGCTATTTATCACGGAGTCACCTAGTGCAG”, the binding signal is 8050 fluorescence intensity (a.u.).

Take “CCAATACGCCCCACACCTCTCCACTCCTGTCCTGTCATCTCGGAGTCACCTAGTGCAG”: the binding signal was 8240 fluorescence intensity (a.u.).

Regarding “CATATAACAACATACATACGCGCGCACTCTTTTTTCTTAACGGAGTCACCTAGTGCAG”, the binding signal was 9420 fluorescence intensity (a.u.).

Regarding “AATTATTCTATTTGCAGTCAATGGCAAAGTCTTCCTGTTCCGGAGTCACCTAGTGCAG”, the binding signal is 10800 fluorescence intensity (a.u.).

For “GTGAGAAAAAGTCAACGGCGTCATCTATTAAAAAACGGAGCGGAGTCACCTAGTGCAG”, the binding signal is 15200 fluorescence intensity (a.u.).

For “TTTGCCATGTCAATCTTCTGTTTTCACATAGCTTCACCGACGGAGTCACCTAGTGCAG”, the binding signal is 8570 fluorescence intensity (a.u.).

Regarding “ACCCGCACCGCCCTCGACCGCCGCCCGTCGCGTCCCGCCTCGGAGTCACCTAGTGCAG”, the binding signal was 8920 fluorescence intensity (a.u.).

With “CTTCTGTTGATCAGGGTTGGTAATCTTGTATTGGTTCCATCGGAGTCACCTAGTGCAG”, the binding signal is 9700 fluorescence intensity (a.u.).

Consider “TCTCTCTCTCTCTCTGCATCTTCTTCTTCTTCTTCCAGTGCGGAGTCACCTAGTGCAG”, for which the binding signal was 8520 fluorescence intensity (a.u.).

As to “TCCTTCATTGTACTACTGCTCCTGCTTGCTCTTTCGCTTTCGGAGTCACCTAGTGCAG”, the binding signal is 8320 fluorescence intensity (a.u.).

For “GTACTTACCATGAAACTCTTATATATTTACATTGTAATTTCGGAGTCACCTAGTGCAG”, the binding signal is 8070 fluorescence intensity (a.u.).

Turning to “CTCCAGCCGCCGCCTGGGCTGAACCCTAACTGCGCCATCACGGAGTCACCTAGTGCAG”, the binding signal is 8750 fluorescence intensity (a.u.).

Take “GCCCTATTTCATATAAATTTTCTTCAGTAGTCTTGCTCTACGGAGTCACCTAGTGCAG”: the binding signal was 9310 fluorescence intensity (a.u.).

With “GATCTTTACCTTTTGCCTCGCTTCTTTCCCGCACGCGCGGCGGAGTCACCTAGTGCAG”, the binding signal is 10500 fluorescence intensity (a.u.).

For the sequence “AAGTGCAACCATAGATATCCGTGTCCAGCGTTTTGACTGTCGGAGTCACCTAGTGCAG”, the binding signal was 9180 fluorescence intensity (a.u.).

Turning to “ACGTGGTGGAGAGTTGAGCGGCCGGCAGTTGAATGTTTGACGGAGTCACCTAGTGCAG”, the binding signal is 8340 fluorescence intensity (a.u.).

For the sequence “CGACGGCGCGCACCCAACACAACACAATACGTCCGCGCCGCGGAGTCACCTAGTGCAG”, the binding signal was 8650 fluorescence intensity (a.u.).

Consider “TCTCTTTTGGCTGCCTGTCACGTGGGCCCCACCGTCACCGCGGAGTCACCTAGTGCAG”, for which the binding signal was 8810 fluorescence intensity (a.u.).

With “GTCCATTCCCTTATTCAGGTGTGCATGCTCTGCATCAATGCGGAGTCACCTAGTGCAG”, the binding signal is 10900 fluorescence intensity (a.u.).

On to “GTCCAAGAAGGCTACACGCTGCCACTGCCAATCTGCCATGCGGAGTCACCTAGTGCAG”, for which the binding signal was 8120 fluorescence intensity (a.u.).

With “GAATTCATACTTTTTCCTATATTTATCTTTGGCCTTAATCCGGAGTCACCTAGTGCAG”, the binding signal was 8560 fluorescence intensity (a.u.).

“ACCATGTCTGTTTCGGCGGTGGCATTAACCAGTCAAGATCCGGAGTCACCTAGTGCAG”: the binding signal is 8040 fluorescence intensity (a.u.).

Consider “GCAACCTCATTTCCTTGTTGTTTTGTGCTTAACACCATATCGGAGTCACCTAGTGCAG”, for which the binding signal was 8450 fluorescence intensity (a.u.).

Consider “TAGTCACCAGCCATTTTAGTCCCATTTTAATTAGTCTCTTCGGAGTCACCTAGTGCAG”, for which the binding signal was 8080 fluorescence intensity (a.u.).

For the sequence “CTTTTTTTATATGTCATGCTTGTACACATATTCCATGTACCGGAGTCACCTAGTGCAG”, the binding signal was 9350 fluorescence intensity (a.u.).

Consider “AGGAACCAATCGTACACACTGGCGCATACAAGCTTCCTACCGGAGTCACCTAGTGCAG”, for which the binding signal is 8880 fluorescence intensity (a.u.).

For the sequence “TAATGTGTTTTAGTTTTTCTTCTGCGTGAAATTTCTGACTCGGAGTCACCTAGTGCAG”, the binding signal was 9060 fluorescence intensity (a.u.).

As for “AAGACTCGAAATGTACTTCGTTTTTCTGTTTTCTATTTGACGGAGTCACCTAGTGCAG”, the binding signal was 9000 fluorescence intensity (a.u.).

As to “GGATTTCCGCCGCCACCGTCTCCGTCGCCGGTCGCGTCAACGGAGTCACCTAGTGCAG”, the binding signal is 11200 fluorescence intensity (a.u.).

For “AATTTCCCAGGCAACCACGCGCGCTGTTCTCCCGCGCTCTCGGAGTCACCTAGTGCAG”, the binding signal is 8480 fluorescence intensity (a.u.).

Consider “CATTATGATATGTATATTTCCTTAGTCCTACAAATAGCTACGGAGTCACCTAGTGCAG”, for which the binding signal was 9100 fluorescence intensity (a.u.).

For the sequence “CTTCTTTCCTGTGGTGGGCGACACGCTCTTCGGTTGTTTCCGGAGTCACCTAGTGCAG”, the binding signal was 12700 fluorescence intensity (a.u.).
